No constants are given. Whether binding was seen depends on the method and setting. Some results given as binding are weak or reduced against the parent protein; the word gives no strength. Tags and fused reporters may be left off the sequences shown.

This test concerns the target CD40/Fc fusion protein (human) (UniProt P25942). The experiment in a line: solid phase CD40 binding assay substantially as in Example 16.

B1: CD40 ligand/zipper domain fusion protein mutant 18 (ligand)
chain: RMKQIEDKIEEIPSKIYHIENEIARIKKLIGERDKIEDERNLHEDFVFMKTIQRCNTGERSLSLLNCEEIKSQFEGFVKDIMLNKEETKKENSFEMQKGDQNPQIAAHVISEPSSKTTSVLQWAEKGYYTMSNNLVTLENGKQLTVKRQGLYYIYAQVTFCSNQEASSQAPFIASLCLKSPGRFERILLRAANTHSSAKPCGQQSIHLGGVFELQPGASVFVNVTDPSQVSHGTGFTSFGLLKL
As to B1, the binding result is on record as “binds”.

B2: CD40 ligand/zipper domain fusion protein mutant 43 (ligand)
chain: RMKQIEDKIEEILSKNYHIENEIARIKKLIGERDKIEDERNLHEDFVFMKTIQRCNTGERSLSLLNCEEIKSQFEGFVKDIMLNKEETKKENSFEMQKGDQNPQIAAHVISEASSKSTSVLQWAEKGYYTMSNNLVTLENGKQLTVIRQGLYYIYAQVTFCSNREASSLAPFIASLCLKSPGRFERILLRAASTHSSAKPCGQQSIHLGGVFELQPGASVFVNVTDPSQVSHGTGFTSFGLLKL
As to B2, the binding entry is “binds”.

(Values after patent US20030091564A1.)
